Measurements from PMC8881610.
No constants are given. Whether binding was seen depends on the method and setting.

Chains of the proteins cited; added tags and fusions are not shown. Residues count along the entry.
UniProt P01275, residues 98-127: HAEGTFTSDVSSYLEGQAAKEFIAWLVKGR

Target: T1, human GIPR, wild-type, on cells (human) (UniProt P48546)
T1 sequence: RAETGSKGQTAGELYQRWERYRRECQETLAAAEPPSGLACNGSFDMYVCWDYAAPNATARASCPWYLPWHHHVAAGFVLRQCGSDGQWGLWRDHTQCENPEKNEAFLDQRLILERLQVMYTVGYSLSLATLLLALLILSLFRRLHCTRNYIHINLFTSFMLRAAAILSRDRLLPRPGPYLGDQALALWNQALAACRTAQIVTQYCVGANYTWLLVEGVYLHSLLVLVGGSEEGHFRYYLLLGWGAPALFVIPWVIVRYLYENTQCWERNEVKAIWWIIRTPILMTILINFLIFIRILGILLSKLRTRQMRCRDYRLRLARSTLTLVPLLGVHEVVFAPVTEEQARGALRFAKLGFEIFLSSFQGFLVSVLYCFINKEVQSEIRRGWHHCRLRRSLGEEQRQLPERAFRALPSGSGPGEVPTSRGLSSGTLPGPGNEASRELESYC
Test: radioligand binding; whole-cell competition on CHO-K1 cells transiently expressing GIPR; 125I-GIP(1-42) 30 pM and unlabeled peptide 3.57 pM to 5 μM, RT, 3 h; F-12 with 0.1% BSA or 0.1% casein, 33 mM HEPES; only the binder purified

Question: For “glucagon-like peptide-1 GLP-1(7-36)NH2 (from UniProt P01275 98-127) (ligand)”, which binding is on record?
Answer: no binding (tested: 5 μM)
